Values from PubChem BioAssay AID652272 (Drosophila RNAi Screening Center, 2013)
In all, the deposit lists about 21,000 reagents; this is an unselected part of those that have a named target and a result. Over the whole deposit, 503 (2.4%) are marked active. 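Raw plate light values, not normalised; calls rest on replicate z-scores that were not deposited; hits include reporter decreases as well as increases.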 A plus sign joins genes that one reagent is predicted to hit. No sequences are given here. The record does not give: the amount of reagent, the time to read-out.

- Assay: 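Genome-wide knock-down search for components of Hedgehog signalling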 (primary screen)
- Cells: Drosophila clone 8 (Cl8) cells
- Knock-down reagent: long dsRNA against Drosophila genes
- Measured: 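Firefly light from a Hedgehog-responsive ptc promoter reporter and Renilla reference light, both read on a plate reader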
- Reading the numbers: firefly Hh reporter signal: higher = more ptc reporter light; Renilla reference signal: higher = more Renilla control light
- Call rule: 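Called a hit if the two-replicate mean z-score lies below -2 or above +3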
- Meaning of the calls: active = hit: reporter lowered or raised; inactive = not a hit

no.	predicted target	dsRNA	firefly Hh reporter signal, replicate 1	firefly Hh reporter signal, replicate 2	firefly Hh reporter signal, replicate 3	Renilla reference signal, replicate 1	Renilla reference signal, replicate 2	activity call
1	velo (veloren)	DRSC08841	58546	88227		1463	4333	inactive
2	velo (veloren)	DRSC09698	60211	86983		3024	3464	inactive
3	ND-MWFE (NADH dehydrogenase (ubiquinone) MWFE subunit)	DRSC06364	1.26e5	69089		3542	5475	inactive
4	tws (twins)	DRSC12767	1.71e5			3526		inactive
5	tws (twins)	DRSC17092	1.07e5	79091		3217	2226	inactive
6	Cpr65Az (Cuticular protein 65Az)	DRSC09882	1.05e5	86411		9654	6387	inactive
7	vih (vihar)	DRSC09778	30442	43978	59589	5305	3969	inactive
8	Eig71Ed (Ecdysone-induced gene 71Ed)	DRSC11151	1.26e5			6372	4023	inactive
9	CG3748	DRSC02716	69336	44316		1398	4163	inactive
10	Gem3 (Gemin 3)	DRSC11144	93784	48549	63560	4217	4928	inactive
11	l(2)03659 (lethal (2) 03659)	DRSC07269	1.49e5	69232		3712	5858	inactive
12	l(2)03659 (lethal (2) 03659)	DRSC07638	1.20e5	38343		3144	3308	inactive
13	EMC4 (ER membrane protein complex subunit 4)	DRSC11638	57491	92392		1666	2455	inactive
14	CG13124	DRSC02220	86760	48337		3224	2100	inactive
15	asRNA:CR43468 + Lfg	DRSC06853	75334	42464		1450	3155	inactive
16	Grd (Glycine receptor)	DRSC11178	1.04e5			3696	2982	inactive
17	CG32170	DRSC09452	1.93e5			2977		inactive
18	CG2685	DRSC18463	1.05e5	32372		7792	1584	active
19	CG8142	DRSC20086	1.33e5	1.33e5		2957	3031	inactive
20	ash1 (absent, small, or homeotic discs 1)	DRSC11325	99268	66262		3494	2113	inactive
21	CG5541	DRSC19946	1.74e5	1.18e5		3981	3041	inactive
22	pall (pallbearer)	DRSC10364	79171	42736		3784	1456	inactive
23	inaF-B + inaF-D + inaF-C + 1 more	DRSC20342	70275	1.46e5		1201	6848	inactive
24	CG8229 + CG33199	DRSC05134	1.43e5	2.22e5		3413	9434	inactive
25	c12.2	DRSC18751	43722	1.15e5		1239	5541	inactive
26	Sply (Sphingosine-1-phosphate lyase)	DRSC07299	6.38e5	80187		3323	3323	inactive
27	Acp53C14b (Accessory gland protein 53C14b)	DRSC06569	96358	39314		2704	2624	inactive
28	PCB (Pyruvate carboxylase)	DRSC05939	68009	57799		2960	2256	inactive
29	Lk (Leucokinin)	DRSC10022	1.91e5			5260	5194	inactive
30	CG6938	DRSC10752	50304	46348	61606	3947	4234	inactive
31	CheB53a (Chemosensory protein B 53a)	DRSC06625	74352	58964		1926	4438	inactive
32	Alg2 (ALG2, alpha-1,3/1,6-mannosyltransferase)	DRSC08298	95577	80026		3654	3248	inactive
33	CG3294	DRSC00590	61456	47898		2353	1977	inactive
34	CG9485	DRSC04557	1.62e5	69275		6153	2960	inactive
35	phtm (phantom)	DRSC20237	55264	2.00e5		1344	7237	inactive
36	CG3356	DRSC04358	98852	61831		4325	2752	inactive
37	chif (chiffon)	DRSC03508	63100	52821		3248	2203	inactive
38	CG4367	DRSC15568	4.84e5	69332		27276	1997	inactive
39	x16 (x16 splicing factor)	DRSC00960	8.38e5	2.43e5		40905	9591	inactive
40	x16 (x16 splicing factor)	DRSC03638	1.08e5	89568		4026	3365	inactive
41	CG31802	DRSC02459	1.47e5	61209		3632	4225	inactive
42	CG7110	DRSC03011	46960	80614		1787	2738	inactive
43	CG7110	DRSC03012	98240	44105		2916	4682	inactive
44	CG7140	DRSC11799	91147	84320		3277	2266	inactive
45	CG42712 (retired record)	DRSC01038	4.39e5	1.78e5		20907	6437	inactive
46	Ugt37C1 (UDP-glycosyltransferase family 37 member C1)	DRSC07416	62983	56080		875	3971	inactive
47	loqs (loquacious)	DRSC02997	72264	52772		2370	5620	inactive
48	Rpt3 (Regulatory particle triple-A ATPase 3)	DRSC20283	68400	41773		4192	1644	inactive
49	CG33483	DRSC14019	5.58e5	2.06e5		26368	5019	inactive
50	wb (wing blister)	DRSC01375	19539	47717		957	3346	active
51	wb (wing blister)	DRSC03634	99248	40860		2627	4192	inactive
52	CG12147	DRSC12192	50472	92438		1920	2091	inactive
53	ND-75 (NADH dehydrogenase (ubiquinone) 75 kDa subunit)	DRSC18686	89061	3.36e5		2347	9874	inactive
54	Samtor (S-adenosylmethionine sensor upstream of TORC1)	DRSC04390	1.26e5	75146		4535	3356	inactive
55	hry (hairy)	DRSC11353	74280	31297		3248	1328	inactive
56	Cth (Cystathionine gamma-lyase)	DRSC07422	2.05e5	97476		7298	4022	inactive
57	Vamp7 (Vesicle-associated membrane protein 7)	DRSC06599	1.20e5	47264		2282	3153	inactive
58	cic (capicua)	DRSC14276	3.53e5	30576		24604	1164	inactive
59	cic (capicua)	DRSC15708	3.08e5	23814		21392	916	inactive
60	cic (capicua)	DRSC16918	4.56e5	76113		30156	2678	inactive
61	cic (capicua)	DRSC21243	80768	2.42e5		3254	9776	inactive
62	CG13946	DRSC00364	94045	74790		2116	1923	inactive
63	RabX1	DRSC04678	86005	70588		2487	5815	inactive
64	Catsup (Catecholamines up)	DRSC03288	64920	60904		1932	5218	inactive
65	Cpr78Ca (Cuticular protein 78Ca)	DRSC11651	1.49e5	1.26e5		5027	3401	inactive
66	PEK (pancreatic eIF-2alpha kinase)	DRSC12361	1.55e5	1.32e5		5376	5320	inactive
67	Gnmt (Glycine N-methyltransferase)	DRSC15987	79591	1.48e5		2839	3851	inactive
68	Cpr30B (Cuticular protein 30B)	DRSC02728	1.21e5	52886		3421	5244	inactive
69	CG14760	DRSC06495	1.01e5	40648		2586	3648	inactive
70	Hacl (2-hydroxyacyl-CoA lyase)	DRSC06061	1.30e5	90934		6123	4198	inactive
71	EloA (Elongin A)	DRSC16109	1.16e5	57625		4874	2360	inactive
72	SCAP (SREBP cleavage activating protein)	DRSC04869	1.01e5	1.14e5		2150	7756	inactive
73	SCAP (SREBP cleavage activating protein)	DRSC04907	97959	72186		1654	6562	inactive

Reagents above with an active call:
predicted target	dsRNA	firefly Hh reporter signal, replicate 1	firefly Hh reporter signal, replicate 2	firefly Hh reporter signal, replicate 3	Renilla reference signal, replicate 1	Renilla reference signal, replicate 2	activity call
CG2685	DRSC18463	1.05e5	32372		7792	1584	active
wb (wing blister)	DRSC01375	19539	47717		957	3346	active
